Assay results from paper PMC4712785.
No constants are given. Whether binding was seen depends on the method and setting. In cells and extracts the contact can be indirect. Some binding calls cover weakened binding; strength is not graded here. Sequences can lack the tags named with a protein.

Chains of the proteins cited; added tags and fusions are not shown.
UniProt P06780: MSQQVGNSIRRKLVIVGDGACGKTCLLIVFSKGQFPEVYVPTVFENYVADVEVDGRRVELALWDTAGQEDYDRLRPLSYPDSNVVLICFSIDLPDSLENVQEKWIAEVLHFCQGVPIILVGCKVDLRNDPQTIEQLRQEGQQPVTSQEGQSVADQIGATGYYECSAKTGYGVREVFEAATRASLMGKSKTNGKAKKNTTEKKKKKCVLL

Columns and labels:
Assay in all cases: pull-down; GST or GST–α-arrestins from BJ5459 GEV yeast extracts on glutathione-agarose beads, washed, incubated 2 h at 4°C with extract of cells expressing HA-Rho1; 100 mM NaCl, 0.2% Triton X-100, 15 mM EGTA, 50 mM Tris-HCl pH 7.4; immunoblot anti-HA and anti-GST; only the target purified
[1] = target: T1, GST–Ldb19 (S. cerevisiae) (UniProt Q12502)
T1 sequence: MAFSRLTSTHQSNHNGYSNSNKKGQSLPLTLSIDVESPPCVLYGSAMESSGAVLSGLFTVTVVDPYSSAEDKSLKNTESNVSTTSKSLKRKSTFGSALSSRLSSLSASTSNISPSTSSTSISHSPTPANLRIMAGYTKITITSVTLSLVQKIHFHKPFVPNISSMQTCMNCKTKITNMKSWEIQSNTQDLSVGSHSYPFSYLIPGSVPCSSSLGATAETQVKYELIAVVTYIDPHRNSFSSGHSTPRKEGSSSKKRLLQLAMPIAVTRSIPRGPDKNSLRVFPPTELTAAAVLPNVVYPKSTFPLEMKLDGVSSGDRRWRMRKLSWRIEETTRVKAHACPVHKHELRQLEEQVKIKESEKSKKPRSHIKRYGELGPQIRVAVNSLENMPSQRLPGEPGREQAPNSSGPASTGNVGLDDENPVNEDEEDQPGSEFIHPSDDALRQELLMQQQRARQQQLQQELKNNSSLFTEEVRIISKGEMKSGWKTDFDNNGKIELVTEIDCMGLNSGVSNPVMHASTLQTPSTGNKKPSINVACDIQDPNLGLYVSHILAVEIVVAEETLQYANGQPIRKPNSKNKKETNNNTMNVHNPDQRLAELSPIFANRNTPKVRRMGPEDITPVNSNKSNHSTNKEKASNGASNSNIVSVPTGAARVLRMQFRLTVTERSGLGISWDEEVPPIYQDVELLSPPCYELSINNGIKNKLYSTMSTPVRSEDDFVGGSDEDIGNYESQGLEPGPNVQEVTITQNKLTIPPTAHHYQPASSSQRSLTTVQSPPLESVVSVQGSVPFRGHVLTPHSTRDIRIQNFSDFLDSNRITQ

GST–Aly2 (S. cerevisiae) = target: T2, GST–Aly2 (S. cerevisiae) (UniProt P47029)
T2 sequence: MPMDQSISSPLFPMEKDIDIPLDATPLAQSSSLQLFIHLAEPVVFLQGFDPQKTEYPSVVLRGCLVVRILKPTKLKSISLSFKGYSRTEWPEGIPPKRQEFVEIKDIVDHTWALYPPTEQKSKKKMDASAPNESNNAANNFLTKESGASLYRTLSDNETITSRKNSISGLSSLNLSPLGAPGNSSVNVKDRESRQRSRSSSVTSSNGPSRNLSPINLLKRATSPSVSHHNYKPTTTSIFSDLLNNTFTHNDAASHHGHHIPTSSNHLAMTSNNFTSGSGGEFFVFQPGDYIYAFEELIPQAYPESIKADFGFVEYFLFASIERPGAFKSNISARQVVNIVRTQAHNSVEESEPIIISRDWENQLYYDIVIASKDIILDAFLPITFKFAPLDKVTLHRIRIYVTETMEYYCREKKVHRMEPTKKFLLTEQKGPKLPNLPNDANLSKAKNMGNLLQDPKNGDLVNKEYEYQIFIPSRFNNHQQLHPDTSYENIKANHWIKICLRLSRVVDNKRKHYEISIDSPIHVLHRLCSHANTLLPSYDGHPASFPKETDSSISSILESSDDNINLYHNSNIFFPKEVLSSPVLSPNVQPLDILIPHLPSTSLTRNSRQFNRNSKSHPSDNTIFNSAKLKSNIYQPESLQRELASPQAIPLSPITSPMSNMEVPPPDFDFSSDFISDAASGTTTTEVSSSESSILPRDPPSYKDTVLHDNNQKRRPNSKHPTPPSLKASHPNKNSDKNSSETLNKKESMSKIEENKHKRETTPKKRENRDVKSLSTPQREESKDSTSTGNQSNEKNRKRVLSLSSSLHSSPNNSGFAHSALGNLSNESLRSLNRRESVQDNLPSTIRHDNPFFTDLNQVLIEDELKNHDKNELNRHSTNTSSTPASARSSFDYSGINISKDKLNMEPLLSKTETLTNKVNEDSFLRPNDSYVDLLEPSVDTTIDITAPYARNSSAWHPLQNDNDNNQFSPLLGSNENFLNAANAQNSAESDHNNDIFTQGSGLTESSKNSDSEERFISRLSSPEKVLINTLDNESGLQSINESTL

GST–Rog3 (S. cerevisiae) = target: T3, GST–Rog3 (S. cerevisiae) (UniProt P43602)
T3 sequence: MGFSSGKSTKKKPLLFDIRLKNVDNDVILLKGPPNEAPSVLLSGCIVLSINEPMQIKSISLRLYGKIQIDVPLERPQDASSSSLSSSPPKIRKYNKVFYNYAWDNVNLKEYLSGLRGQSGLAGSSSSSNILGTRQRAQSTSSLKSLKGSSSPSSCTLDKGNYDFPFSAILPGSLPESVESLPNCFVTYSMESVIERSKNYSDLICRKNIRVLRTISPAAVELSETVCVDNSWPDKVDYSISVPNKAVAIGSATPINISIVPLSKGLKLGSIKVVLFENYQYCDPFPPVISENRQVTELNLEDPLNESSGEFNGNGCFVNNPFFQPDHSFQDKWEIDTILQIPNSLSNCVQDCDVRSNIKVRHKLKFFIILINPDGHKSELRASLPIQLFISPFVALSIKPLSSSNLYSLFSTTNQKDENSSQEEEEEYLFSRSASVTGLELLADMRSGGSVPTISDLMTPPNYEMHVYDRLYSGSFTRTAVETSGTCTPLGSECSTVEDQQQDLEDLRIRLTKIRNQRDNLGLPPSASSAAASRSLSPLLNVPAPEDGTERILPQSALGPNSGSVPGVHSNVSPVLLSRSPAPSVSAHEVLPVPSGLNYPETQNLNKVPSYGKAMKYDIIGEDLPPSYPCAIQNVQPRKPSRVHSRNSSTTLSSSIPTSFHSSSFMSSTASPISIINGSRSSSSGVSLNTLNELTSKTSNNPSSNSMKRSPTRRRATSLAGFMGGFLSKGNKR

binding [1]: binds
binding (GST–Aly2 (S. cerevisiae)): binds
binding (GST–Rog3 (S. cerevisiae)): binds
Substance: HA–Rho1 (from UniProt P06780 1-209)
